Data as given in PubChem BioAssay AID652259 (Drosophila RNAi Screening Center, 2013)
Screen: 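Knock-downs that push a Wingless-driven reporter up or down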 (primary screen). Cells: Drosophila clone 8 imaginal disc epithelial cells. Knock-down reagent: long dsRNA against Drosophila genes. Conditions: pathway stimulated by co-transfected Wingless expression plasmid. Detection: 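Firefly luciferase from a tcf-site Wingless reporter, measured alongside co-transfected Renilla luciferase that tracks transfection; pathway stimulated by a Wingless plasmid; the firefly-to-Renilla ratio is not deposited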. Reading the numbers: firefly reporter light: higher = more Wg reporter light, before normalisation; Renilla control light: higher = more transfected or surviving cells. Active means: 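Strong candidates differ from their plate mean by at least two out of four per-plate statistical tests; weak candidates meet just one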. Calls: active = candidate regulator (raises or lowers reporter); inactive = not a candidate.
In all, the deposit lists about 22,000 reagents; below is a random part of those that have a named target and a result. Of all reagents, 233 (1.1%) are marked active. 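Light values are raw, unnormalised plate reads; the ratio scores behind the reporter calls were not deposited.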 Entries without a mark were called inactive. Not given: the amount of reagent, the time to read-out, the dose of the treatment.

sktl [DRSC04715] showed firefly reporter light, replicate 1 = 7676; Renilla control light, replicate 1 = 1853.
Knock-down of CG11263 [DRSC09832] resulted in: firefly reporter light, replicate 1 = 4620; Renilla control light, replicate 1 = 2193.
With knock-down of CG5466 [DRSC15808] the results were firefly reporter light, replicate 1 = 11932; Renilla control light, replicate 1 = 752.
Depletion of cup [DRSC03516] gave: firefly reporter light, replicate 1 = 5994; Renilla control light, replicate 1 = 2409.
With knock-down of CG32376 [DRSC22754], the record shows firefly reporter light, replicate 1 = 4.46e5; firefly reporter light, replicate 2 = 3.39e5; Renilla control light, replicate 1 = 1.82e5; Renilla control light, replicate 2 = 47338.
After knock-down of SdhC [DRSC16088] the results were firefly reporter light, replicate 1 = 16109; Renilla control light, replicate 1 = 5579.
For CG43095 [DRSC13573] the deposit lists firefly reporter light, replicate 1 = 2285; Renilla control light, replicate 1 = 1395.
Nca [DRSC11233] scored firefly reporter light, replicate 1 = 15059; Renilla control light, replicate 1 = 5584.
After knock-down of nonA [DRSC20357] the results were firefly reporter light, replicate 1 = 16887; Renilla control light, replicate 1 = 9306.
koi [DRSC04980] gave firefly reporter light, replicate 1 = 1632; firefly reporter light, replicate 2 = 3994; Renilla control light, replicate 1 = 167; Renilla control light, replicate 2 = 2429.
With knock-down of koi [DRSC04991] the results were firefly reporter light, replicate 1 = 2380; firefly reporter light, replicate 2 = 5717; Renilla control light, replicate 1 = 173; Renilla control light, replicate 2 = 2854.
Against CG12863 [DRSC06203], the values are firefly reporter light, replicate 1 = 6896; Renilla control light, replicate 1 = 3475.
For Golgin245 [DRSC04374] the deposit lists firefly reporter light, replicate 1 = 20519; Renilla control light, replicate 1 = 4864.
With knock-down of Golgin245 [DRSC22012], the screen gave firefly reporter light, replicate 1 = 5.31e5; firefly reporter light, replicate 2 = 5.13e5; Renilla control light, replicate 1 = 1.95e5; Renilla control light, replicate 2 = 1.99e5.
Depletion of CG30344 [DRSC22510] resulted in: firefly reporter light, replicate 1 = 7.80e5; firefly reporter light, replicate 2 = 8.11e5; Renilla control light, replicate 1 = 3.68e5; Renilla control light, replicate 2 = 1.94e5.
With knock-down of Elp6 [DRSC16571], the record shows firefly reporter light, replicate 1 = 5264; Renilla control light, replicate 1 = 2119.
For Bhmt [DRSC02079], the entry reads firefly reporter light, replicate 1 = 1659; firefly reporter light, replicate 2 = 7842; Renilla control light, replicate 1 = 436; Renilla control light, replicate 2 = 2074.
For gukh [DRSC14768] the deposit lists firefly reporter light, replicate 1 = 14130; Renilla control light, replicate 1 = 3394.
Knock-down of gukh [DRSC15806] resulted in: firefly reporter light, replicate 1 = 14804; Renilla control light, replicate 1 = 4244.
After knock-down of gukh [DRSC15944], the screen gave firefly reporter light, replicate 1 = 1811; firefly reporter light, replicate 2 = 6077; Renilla control light, replicate 1 = 601; Renilla control light, replicate 2 = 1916.
Silencing of CG10466 [DRSC02060] came out at: firefly reporter light, replicate 1 = 3732; firefly reporter light, replicate 2 = 10315; Renilla control light, replicate 1 = 845; Renilla control light, replicate 2 = 4235.
Knock-down of CG15043 [DRSC19619] resulted in: firefly reporter light, replicate 1 = 20492; Renilla control light, replicate 1 = 7556.
For Rad60 [DRSC15580], the values are firefly reporter light, replicate 1 = 15015; Renilla control light, replicate 1 = 11792.
Against CG12111 [DRSC17808], the values are firefly reporter light, replicate 1 = 22489; Renilla control light, replicate 1 = 11905.
CG7382 [DRSC03052] gave firefly reporter light, replicate 1 = 8380; Renilla control light, replicate 1 = 3222.
